Assay results taken from PubChem BioAssay AID1347076 (National Center for Advancing Translational Sciences (NCATS), 2019).
The campaign covered roughly 400,000 compounds. About 13,000 (3.2%) were called active. This list was built around the results that the source calls inconclusive (neither active nor inactive); the mix of calls is not that of the screen. Calls come from the whole dose curve; as a rule, active = well fitted cell-killing curve with a large enough effect; inconclusive = small, poorly fitted or top-dose-only effect, or effect the other way; inactive = flat fitted curve, though single readings scatter. Where the call is inconclusive, the potency comes from a doubtful curve fit.

Assay: qHTS assay for MDR1-selective chemotherapeutics: Primary screen using the drug-selected MDR subline cells KB-V1; note: nearly all actives have a fitted effect of over 60% in size
Details: KB-V1 MDR cells viability, CellTiter-Glo, 72 h; activity change, negative = cytotoxicity: at 46.1 µM (top of the series)
Procedure, shortened: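 Following 72 h at 37 degrees C with compound, KB-V1 cell viability was read by CellTiter-Glo luminescence, medium being phenol-red-free DMEM plus 10% FBS; concentration-response parameters came from normalized, curve-fitted qHTS data.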
% is set by controls: 0 for no effect and ±100 for the full control effect; potency is the fitted concentration of half-maximal effect.

Row | Compound | Potency | activity change, negative = cytotoxicity
1 | COc1ccccc1C1(CCNC(C)c2cccs2)CCOC(C(C)C)C1 (centres undefined) | inconclusive: 9.2 µM [cytotoxic, partial curve] | 
2 | CCC(c1nnnn1CCOC)N(Cc1ccc(C)cc1)Cc1cc2cc(OC)ccc2[nH]c1=O (centres undefined) | active: 23.1 µM | 
3 | CCOc1ccc(NC(=O)C2CCCN(S(=O)(=O)c3ccc4c(c3)CC(C)N4C(C)=O)C2)cc1 (centres undefined) | inconclusive: 29.1 µM [rising, single point] | 
4 | Cc1cc(C)c(C)c(S(=O)(=O)Nc2ccccc2C(=O)NCCCn2ccnc2)c1C | inactive | 
5 | O=C(CCn1cnc2onc(-c3ccc(F)cc3)c2c1=O)Nc1cccc(C(F)(F)F)c1 | inconclusive: 29.1 µM [cytotoxic, single point] | 
6 | Cc1ccc(-c2nnc(Nc3ccc(OCC(N)=O)cc3)c3ccccc23)cc1S(=O)(=O)NCC1CCCO1 (centres undefined) | inconclusive: 9.2 µM [rising, partial curve, poor fit] | 
7 | O=C(c1cnccn1)N1CCc2c([nH]c3ccccc23)C1c1cccc(Cl)c1 (centres undefined) | active: 23.1 µM | 
8 | Cc1ccc(S(=O)(=O)N(C)CC(=O)O/N=C(\N)c2ccc([N+](=O)[O-])cc2)cc1 | inconclusive: 18.4 µM [cytotoxic, single point] | 
9 | CC(C)c1ccc(/C=C/C(=O)N2CCCCCC2)cc1 | inactive | 
10 | COCCNC(=O)C(c1cccnc1)N(Cc1ccc(C)cc1)C(=O)Cn1nnc2ccccc21 (centres undefined) | inconclusive: 0.731 µM [cytotoxic, full curve, poor fit] | 
11 | CC1Cc2ccccc2N1C(=O)COC(=O)C1=COCCO1 (centres undefined) | inconclusive: 1.41 µM [rising, partial curve, poor fit] | 
12 | Cc1ccc(C)c(N2CCN(CCCNC(=O)c3cnn(-c4cccc(Cl)c4)c3C3CCN(C(=O)OC(C)(C)C)CC3)CC2)c1 | inconclusive: 29.1 µM [cytotoxic, single point] | 
13 | C[C@H](NC(=O)C1CC(=O)N(c2ccc3c(c2)OCO3)C1)C(=O)NC1CCCCC1 (some centres undefined) | inconclusive: 29.1 µM [rising, single point] | 
14 | CCOc1ccc(NC(=O)c2ccc3c(=O)n4c(nc3c2)CCCCC4)cc1 | inconclusive: 2.59 µM [cytotoxic, full curve, poor fit] | 
15 | CC(C)CCN1C(=O)c2ccccc2C1c1nnnn1Cc1ccccc1 (centres undefined) | inconclusive: 7.31 µM [cytotoxic, partial curve] | 
16 | COc1ccc(N2CC(C(=O)Nc3ccccc3N3CCCC3)CC2=O)c(OC)c1 (centres undefined) | inconclusive: 3.26 µM [cytotoxic, full curve] | 
17 | CC1C(c2ccccc2)=Nn2c(=O)n(-c3ccccc3)c(=O)n21 (centres undefined) | inconclusive: 29.1 µM [cytotoxic, single point] | 
18 | COc1ccc(S(=O)(=O)Nc2ccc3c(c2)C(=O)N([C@H](C)CO)C[C@H](C)[C@@H](CN(C)C(=O)Nc2ccccc2)O3)cc1 | inactive | 
19 | COc1ccc(NC(=O)C/C(C)=N/NC(=O)c2cnccn2)cc1Cl | inconclusive: 29.1 µM [rising, single point] | 
20 | CC(C)c1ccc(CNc2ccc([N+](=O)[O-])cn2)cc1 | inconclusive: 20.6 µM [cytotoxic, single point] | 
21 | CCC(C)NC(=O)c1cc2cc3ccc(OC)cc3nc2s1 (centres undefined) | inconclusive: 20.6 µM [cytotoxic, single point] | 
22 | CCc1ccccc1NC(=O)CCn1cccn1 | inconclusive: 20.6 µM [rising, single point] | 
23 | CCOc1ccc(N2CC(C(=O)Nc3cccc(C(=O)NC4CC4)c3)CC2=O)cc1 (centres undefined) | inactive | 

Row | Compound | Potency | activity change, negative = cytotoxicity
24 | COc1ccc(-n2nnc3c(=O)n(CC(=O)Nc4ccc5c(c4)OCCO5)cnc32)cc1OC | inconclusive: 29.1 µM [rising, single point] | 
25 | CC(C)CC1NC(=S)N(Cc2ccccc2)C1=O (centres undefined) | active: 20.6 µM | 
26 | COc1ccc(C)cc1S(=O)(=O)Nc1cc2c3c(c1)CC(=O)N3CCC2 | inactive | 
27 | O=C(CSc1ccc(Br)cc1)NC1CCS(=O)(=O)C1 (centres undefined) | inactive | 
28 | CCC(=O)NC(c1ccccc1)c1nc2ccccc2[nH]1 (centres undefined) | inconclusive: 25.9 µM [cytotoxic, single point] | 
29 | Cc1cccc(N2C(=O)C(O)=C(C(=O)c3cccs3)C2c2ccc(Cl)cc2)n1 (centres undefined) | inconclusive: 5.17 µM [cytotoxic, partial curve] | 
30 | COc1ccc(CCNc2oc(COc3ccccc3)nc2C#N)cc1 | active: 16.4 µM | 
31 | Cc1ccccc1-n1c(C)nnc1SCc1nc2ccccc2s1 | inconclusive: 16.4 µM [cytotoxic, partial curve] | 
32 | O=C(NN=C(c1ccccc1)c1ccccn1)c1ccccc1 | inconclusive: 0.146 µM [cytotoxic, partial curve, poor fit] | 
33 | Cc1cc(C)cc(NC(=O)C(=O)NCCc2sc(-c3cccc(F)c3)nc2C)c1 | inactive | 
34 | Nc1ncc(Br)cc1S(=O)(=O)Nc1cc(C(F)(F)F)cc(C(F)(F)F)c1 | inconclusive: 16.4 µM [cytotoxic, partial curve, poor fit] | 
35 | Cc1c(CN(C)C)c2c(n1Cc1ccccc1)C(=O)c1ccc(Br)cc1-2 | active: 23.1 µM | 
36 | CCOC(=O)c1cnc2ccc(OCC)cc2c1NCc1cccnc1 |  | inconclusive: -27.8%
37 | CCOc1ccc(-c2noc(CCC(=O)NC3CCCC3)n2)cc1OC | inconclusive: 2.59 µM [cytotoxic, full curve] | 
38 | COc1cccc(-c2oc3c(c2C#CC2(N)CCCCC2)C(O)CCC3)c1 (centres undefined) | inconclusive: 18.4 µM [cytotoxic, partial curve] | 
39 | O=C(Cn1cc2c(n1)CCCCC2)NCc1ccccn1 | inconclusive: 29.1 µM [rising, single point] | 
40 | COCCNc1nc(SCC(=O)N2CCN(c3ccccc3)CC2)nc2ccccc12 | active: 9.2 µM | 
41 | CC1CCC2(CC1)NC(=O)N(CC(=O)Nc1ccccc1-c1ccccc1)C2=O (centres undefined) | inconclusive: 23.1 µM [rising, single point] | 
42 | CC1CCN(C(=O)C(=O)Nc2sc3c(c2C(N)=O)CC(C)(C)OC3)CC1 | inactive | 
43 | O=C(CCS(=O)(=O)c1ccccc1)Nc1nc2cc3c(cc2s1)OCO3 | inactive | 
44 | CC1=C(C(N)=O)C(c2ccc(C)cc2)n2nc(SCc3ccccc3)nc2N1 (centres undefined) | inactive | 
45 | CC(C)=CCN1CCN(Cc2cccn2-c2nccs2)CC1CCO (centres undefined) |  | inconclusive: -6.44%
46 | FC(F)(F)c1cccc(N2CCN(c3nnnn3-c3ccccc3)CC2)c1 | inconclusive: 18.4 µM [cytotoxic, single point] | 

Row | Compound | Potency | activity change, negative = cytotoxicity
47 | COc1ccccc1-c1nn(CCC(=O)Nc2ccc(C)cc2)c2nc(C)cc(C)c12 | inconclusive: 29.1 µM [cytotoxic, single point] | 
48 | O=C(COC(=O)c1c2c(nc3ccccc13)/C(=C\c1cccs1)CCC2)Nc1ccccc1 | active: 2.31 µM | 
49 | CCS(=O)(=O)c1nc(S(=O)(=O)c2ccc(Cl)cc2)c(N2CCN(C)CC2)s1 |  | inconclusive: -89.3%
50 | Cc1ccccc1NC(=O)CSc1ccc(-c2ccccn2)nn1 | inconclusive: 9.2 µM [cytotoxic, partial curve, poor fit] | 
51 | COc1cc(/C=C(/C#N)c2nc3ccccc3[nH]2)ccc1OCC(=O)Nc1ccccc1C(C)C | inconclusive: 2.31 µM [cytotoxic, partial curve, poor fit] | 
52 | O=C(NCc1ccccc1Cl)C1=Cc2cc(Br)ccc2OC1 | inactive | 
53 | Cc1ccc2[nH]c(=O)c(CN(CCCN(C)C)C(=O)Nc3ccc(Cl)cc3)cc2c1 | inactive | 
54 | O=C(CCn1c(SCC(=O)NCc2ccco2)nc2ccccc2c1=O)NCCc1ccccc1 | active: 20.6 µM | 
55 | Cn1c(=O)c2cc(S(=O)(=O)NCCC(=O)N3CC=C(c4ccccc4)CC3)ccc2n(C)c1=O | active: 23.1 µM | 
56 | CC(=O)N1N=C(c2cccc([N+](=O)[O-])c2)OC1c1cccc(Br)c1 (centres undefined) | inconclusive: 18.4 µM [cytotoxic, single point] | 
57 | COc1ccc(-c2nn(-c3ccccc3)cc2/C=N/NS(=O)(=O)c2ccccc2)cc1 | inconclusive: 29.1 µM [cytotoxic, single point] | 
58 | C/C(=N\NC(=O)c1ccc(Cl)cc1)c1ccc(N2CCOCC2)cc1 | inactive | 
59 | COc1cc(Cl)c(C)cc1NC(=O)CSc1cc(Cl)ccc1Cl | inconclusive: 29.1 µM [cytotoxic, single point] | 
60 | O=C(O)C1OC(Oc2c(-c3ccc(O)c(O)c3)oc3cc(O)cc(O)c3c2=O)C(O)C(O)C1O (centres undefined) | inconclusive: 29.1 µM [rising, single point] | 
61 | O=C(CN1CCCCCC1=O)OCc1ncc(-c2ccccc2)o1 | inactive | 
62 | CCC(CC)c1nnc(NC(=O)C2CC(=O)N(CCc3ccc(F)cc3)C2)s1 (centres undefined) | inconclusive: 29.1 µM [cytotoxic, single point] | 
63 | CCc1ccc(/C=C2\SC(=S)N(CCCC(=O)Nc3ccccn3)C2=O)cc1 | inconclusive: 20.6 µM [cytotoxic, single point] | 
64 | O=C(CSc1nnnn1-c1ccccc1)Nc1ncc(Cc2ccccc2Cl)s1 | inactive | 
65 | Cc1ccc(NC(=O)CSc2nnc(-c3ccc(S(=O)(=O)N4CCOCC4)cc3)n2C)cc1 | inconclusive: 20.6 µM [cytotoxic, single point] | 
66 | Cc1cc(C(=O)OCC(=O)NCc2ccco2)c(C)n1-c1ccc(F)cc1 | active: 1.3 µM | 
67 | CCOC(=O)c1cnc2ccc(C(=O)OC)cc2c1Nc1ccc(OCc2ccccc2Cl)cc1 | inactive | 
68 | c1ccc(Oc2nc(N3CCOCC3)nc(N3CCOCC3)n2)cc1 | inconclusive: 13 µM [cytotoxic, partial curve] | 
69 | Brc1ccc[n+](CCC2CCCCC2)c1 | inconclusive: 29.1 µM [rising, single point] | 
